Results from publication doi:10.1101/828426.
No constants are given. Whether binding was seen depends on the method and setting. Binding seen in cells or lysates may run through a third protein. Some results given as binding are weak or reduced against the parent protein; the word gives no strength.

Protein sequences, listed by entry. Tags and fused reporters are not part of them. Lines headed by an entry give the natural chain unless they say otherwise; changes in a name come on top. Residues count along the entry.
UniProt P15116, 160-906: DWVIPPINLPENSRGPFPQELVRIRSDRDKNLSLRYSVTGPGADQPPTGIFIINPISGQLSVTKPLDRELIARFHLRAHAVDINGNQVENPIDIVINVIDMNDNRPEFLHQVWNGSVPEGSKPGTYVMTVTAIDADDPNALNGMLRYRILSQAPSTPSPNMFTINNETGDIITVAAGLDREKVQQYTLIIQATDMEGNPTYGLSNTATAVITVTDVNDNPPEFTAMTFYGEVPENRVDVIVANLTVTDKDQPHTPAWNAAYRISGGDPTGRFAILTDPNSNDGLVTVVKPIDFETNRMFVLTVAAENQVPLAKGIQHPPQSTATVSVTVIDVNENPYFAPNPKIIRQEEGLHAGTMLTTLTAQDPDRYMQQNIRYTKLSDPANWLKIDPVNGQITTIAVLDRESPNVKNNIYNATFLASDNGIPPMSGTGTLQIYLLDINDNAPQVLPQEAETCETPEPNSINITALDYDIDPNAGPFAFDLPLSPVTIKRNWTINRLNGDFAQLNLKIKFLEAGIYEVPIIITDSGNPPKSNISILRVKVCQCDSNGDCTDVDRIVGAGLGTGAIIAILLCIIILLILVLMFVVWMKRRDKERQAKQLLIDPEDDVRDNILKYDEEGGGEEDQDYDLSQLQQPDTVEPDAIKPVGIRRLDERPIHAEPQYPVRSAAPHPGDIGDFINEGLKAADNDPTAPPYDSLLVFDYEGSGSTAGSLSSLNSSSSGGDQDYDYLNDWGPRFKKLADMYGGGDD
UniProt P15116, whole entry, looked up, stated change not applied: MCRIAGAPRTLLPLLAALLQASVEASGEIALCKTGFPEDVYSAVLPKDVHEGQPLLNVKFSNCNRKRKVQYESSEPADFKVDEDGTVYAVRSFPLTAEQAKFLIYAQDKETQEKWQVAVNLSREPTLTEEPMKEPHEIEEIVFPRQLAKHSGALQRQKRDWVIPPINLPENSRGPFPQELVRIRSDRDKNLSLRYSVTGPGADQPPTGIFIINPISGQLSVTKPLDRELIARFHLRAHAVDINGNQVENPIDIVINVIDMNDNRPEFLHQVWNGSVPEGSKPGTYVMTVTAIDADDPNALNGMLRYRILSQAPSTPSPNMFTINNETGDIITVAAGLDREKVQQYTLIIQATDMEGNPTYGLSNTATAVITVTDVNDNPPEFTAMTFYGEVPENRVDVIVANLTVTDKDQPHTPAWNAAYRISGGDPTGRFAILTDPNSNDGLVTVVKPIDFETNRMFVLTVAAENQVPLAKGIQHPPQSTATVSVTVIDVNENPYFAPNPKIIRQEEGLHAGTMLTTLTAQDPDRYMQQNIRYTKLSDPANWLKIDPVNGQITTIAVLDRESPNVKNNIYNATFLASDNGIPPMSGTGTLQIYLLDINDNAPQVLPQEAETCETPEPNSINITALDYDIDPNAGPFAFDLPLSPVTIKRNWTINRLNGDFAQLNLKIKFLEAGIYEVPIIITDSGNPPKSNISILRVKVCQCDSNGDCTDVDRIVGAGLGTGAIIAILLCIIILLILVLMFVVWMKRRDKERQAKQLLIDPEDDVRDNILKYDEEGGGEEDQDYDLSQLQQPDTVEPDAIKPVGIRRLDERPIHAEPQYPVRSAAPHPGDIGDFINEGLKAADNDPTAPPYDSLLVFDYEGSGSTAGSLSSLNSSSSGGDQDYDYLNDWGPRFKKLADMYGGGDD

Tests used:
Experiment in all cases: co-IP
T7-Fbxo45 (murine) = molecular target: T1, T7-Fbxo45 (murine) (UniProt Q8K3B1)
T1 sequence: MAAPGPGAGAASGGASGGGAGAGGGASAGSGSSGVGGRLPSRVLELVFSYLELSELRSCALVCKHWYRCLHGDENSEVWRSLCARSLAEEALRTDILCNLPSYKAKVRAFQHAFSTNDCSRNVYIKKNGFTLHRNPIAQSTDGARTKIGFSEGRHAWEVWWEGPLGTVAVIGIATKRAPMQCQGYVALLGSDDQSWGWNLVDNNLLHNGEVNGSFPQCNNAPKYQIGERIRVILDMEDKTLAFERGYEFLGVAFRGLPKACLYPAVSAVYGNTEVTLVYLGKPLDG

[1] = molecular target: T2, Fbxo45 mutant 276 (murine) (UniProt Q8K3B1)
T2 sequence: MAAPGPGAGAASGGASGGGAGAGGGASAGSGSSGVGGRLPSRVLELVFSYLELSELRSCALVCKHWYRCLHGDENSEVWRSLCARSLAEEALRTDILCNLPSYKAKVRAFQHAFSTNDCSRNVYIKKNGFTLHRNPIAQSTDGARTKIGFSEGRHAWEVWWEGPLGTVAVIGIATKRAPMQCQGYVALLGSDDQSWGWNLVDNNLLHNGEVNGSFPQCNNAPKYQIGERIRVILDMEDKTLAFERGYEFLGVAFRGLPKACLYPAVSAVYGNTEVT

Fbxo45 Δ225-229 (murine) = molecular target: T3, Fbxo45 Δ225-229 (murine) (UniProt Q8K3B1)
T3 sequence: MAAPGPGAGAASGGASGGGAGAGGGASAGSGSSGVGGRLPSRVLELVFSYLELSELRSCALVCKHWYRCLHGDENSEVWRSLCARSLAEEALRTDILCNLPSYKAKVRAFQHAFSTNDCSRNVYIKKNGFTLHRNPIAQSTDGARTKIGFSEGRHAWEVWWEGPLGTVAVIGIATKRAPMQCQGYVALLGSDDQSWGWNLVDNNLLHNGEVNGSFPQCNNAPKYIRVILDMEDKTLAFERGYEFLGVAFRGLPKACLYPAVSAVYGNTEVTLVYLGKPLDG

| binding (T7-Fbxo45 (murine)) | binding [1] | binding (Fbxo45 Δ225-229 (murine)) | Substance |
| --- | --- | --- | --- |
| binds weakly | – | – | NC1 (from UniProt P15116 160-906) |
| binds | no binding | no binding | NCad-HA (from UniProt P15116 160-906) |
| no binding | – | – | NC12 (from UniProt P15116 160-906) |
| no binding | – | – | NC123 (from UniProt P15116 160-906) |
